Test results reported in PubChem BioAssay AID2685 (National Center for Advancing Translational Sciences (NCATS), 2010).
Some of the results follow. The main result of the screen is listed elsewhere. These columns were measured beside it and carry no call. The list favours compounds with an active or inconclusive main result. Words in brackets tell the shape of the fitted curve; partial curves, single points and poor fits give uncertain potencies.

Assay: qHTS Assay for Lipid Storage Modulators in Drosophila S3 Cells;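 on cell number change: cells counted by Cell Tracker Red CMTPX staining in the red channel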
Details: BODIPY lipid droplet fluorescence, 18-24 h; for cell number change: measured here: cell count max response, cells fed with added oleic acid
Procedure, shortened: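 Drosophila S3 cells got compounds at several concentrations plus oleic acid (400 uM solution). Laser-scanning cytometry with 488 nm excitation read lipid droplets at 500-530 nm and cells at 575-640 nm. Percent activity was relative to 20 uM Triacsin C.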

[1] = measured here: cell number channel AC50, cells fed with added oleic acid
[2] = measured here: lipid fluorescence (Fed channel) AC50, cells fed with added oleic acid

Compound	cell number change [%]	AC50 [1]	AC50 [2]
COc1ccc(CCNC(=O)COC(=O)c2ccc(OC)cc2OC)cc1	84.5	14.6 µM [rising, partial curve]	–
COc1cc(C(=O)CSc2nccn2C)cc(OC)c1OC	13.1	–	29.1 µM [rising, single point]
CC(=O)C1=C(C)NC(C)=C(C(C)=O)C1c1cccs1	58.7	29.1 µM [rising, single point]	–
CCCCOc1ccc(C(=O)NCC(=O)N2CC(C)CC(C)C2)cc1 (centres undefined)	-27.3	–	0.184 µM [falling, single point]
CCN(CC)CCNC(=O)c1ccc(NC(=O)Cc2cccc3ccccc23)cc1	-1.25	–	0.00461 µM [rising, full curve, poor fit]
CCCCCC(=O)c1c(C)[nH]c(C(=O)OCC)c1C	-39.5	16.4 µM [falling, single point]	29.1 µM [falling, single point]
Cn1c(NC(=O)CCc2ccccc2)cc(=O)n(C)c1=O	-11.8	1.84 µM [rising, partial curve]	1.84 µM [rising, partial curve]
Cn1c(=O)n(Cc2ccccc2)c(=O)c2c1nc1n2CCCN1CCc1ccccc1	31.7	29.1 µM [rising, single point]	4.61 µM [rising, partial curve]
COc1ccc(NC(=O)CCCn2cnc3ccccc3c2=O)c(OC)c1	-14.6	–	–
Cn1c(-c2ccc(-c3ccccc3)cc2)c[nH]c1=S	-31.4	14.6 µM [falling, partial curve, poor fit]	8.2 µM [falling, partial curve, poor fit]
COc1ccc(OCC(=O)Nc2ccccc2C(=O)NC(C)C)cc1	16.2	–	–
Cc1cc(C)nc(SCC(=O)Nc2ncc(Cc3cccc(Cl)c3)s2)n1	-37.3	29.1 µM [falling, single point]	32.6 µM [falling, partial curve, poor fit]
COCCNC(=O)NC(=O)CN1CCN(C(c2ccccc2)c2ccccc2)CC1	32.7	–	–
CCCc1ccc2c(N)c(C#N)sc2n1	-0.307	–	6.51 µM [rising, single point]
CCc1ccc(OC(C)c2nnc(SCC(=O)Nc3ncccc3C)n2C)cc1 (centres undefined)	178	23.1 µM [rising, partial curve]	2.31 µM [rising, full curve, poor fit]
CCCn1c(=O)c(C(=O)NCc2ccccc2Cl)c(O)c2ccccc21	4.01	–	29.1 µM [rising, single point]
Cc1cccc2cc(CN(Cc3ccco3)C(=O)N3CCCC3)c(=O)[nH]c12	10.3	–	1.16 µM [rising, full curve]
CCCNS(=O)(=O)c1ccc(OCC(=O)N(C)Cc2ccccc2)cc1	6.55	–	–
CCOc1ccc(N(CC(=O)NC2CCCCC2)C(=O)CCC(=O)Nc2cc(C)ccn2)cc1	6.25	–	–
CNC(=O)COC(=O)c1cc2c(s1)CCCC2	22	–	0.13 µM [falling, full curve, poor fit]

Four compounds already listed, sorted by SMILES length, descending.
Compound	cell number change [%]	AC50 [1]	AC50 [2]
Cc1cccc2cc(CN(Cc3ccco3)C(=O)N3CCCC3)c(=O)[nH]c12	10.3	–	1.16 µM [rising, full curve]
CCCCOc1ccc(C(=O)NCC(=O)N2CC(C)CC(C)C2)cc1 (centres undefined)	-27.3	–	0.184 µM [falling, single point]
CC(=O)C1=C(C)NC(C)=C(C(C)=O)C1c1cccs1	58.7	29.1 µM [rising, single point]	–
Cn1c(NC(=O)CCc2ccccc2)cc(=O)n(C)c1=O	-11.8	1.84 µM [rising, partial curve]	1.84 µM [rising, partial curve]

(continued)

Compound	cell number change [%]	AC50 [1]	AC50 [2]
COc1ccc2c(c1OC)C(=O)c1ccccc1C2=O	29.8	–	6.51 µM [rising, partial curve, poor fit]
CCN1C(=O)[C@@H]2[C@@H](c3ccc(-c4ccc(Cl)c(Cl)c4)c(OC)c3)N3CCC[C@@]3(C(=O)OC)[C@@H]2C1=O	-6.01	6.51 µM [falling, single point]	–
COCCn1cc(C(=O)N2CCC(C)CC2)c2c3ccccc3n(C)c2c1=O	-19.6	–	7.31 µM [falling, partial curve]
CCC(=O)N1CCN(c2nc(C)nc3sc(C)c(C)c23)CC1	28.2	–	8.2 µM [rising, partial curve]
CN1CCN(S(=O)(=O)c2ccc(Sc3nc4ccccc4[nH]3)c3nsnc23)CC1	6.75	–	8.2 µM [rising, partial curve, poor fit]
CCCOc1ccc(N2C(=O)CC(N3CCN(CCN=CC4C(=O)CC(C)(C)CC4=O)CC3)C2=O)cc1 (centres undefined)	-15.6	–	14.6 µM [falling, single point]
O=C(O)CCNC(=O)c1ccccc1	23.4	3.66 µM [rising, full curve, poor fit]	9.2 µM [falling, partial curve]
CCn1cc(-c2ccnc3cc(C(=O)O)nn23)c(C)n1	25.3	–	2.31 µM [falling, partial curve]
CCNC(=S)N(Cc1ccco1)Cc1cc2cc3c(cc2[nH]c1=O)OCCO3	18.6	–	9.2 µM [rising, single point]
CC1CC(C)CN(C(=O)CNC(=O)c2sc3ccccc3c2Cl)C1 (centres undefined)	–	–	1.3 µM [falling, full curve]
O=C(NCc1cccnc1)Nc1cc(Cl)cc(Cl)c1	34.4	–	10 µM [falling, partial curve]
CSc1nc2cc3c(cc2n1C(=O)c1ccc(C)cc1)OCCO3	-14.1	–	32.6 µM [falling, partial curve, poor fit]
O=C(NC1CCCc2c1cnn2-c1ccc(F)cc1F)c1ccccn1 (centres undefined)	-27.9	0.013 µM [falling, full curve]	0.00517 µM [falling, full curve]
O=C(CN(c1cccc(C(F)(F)F)c1)S(=O)(=O)c1ccccc1)N1CCOCC1	-8.54	–	–
COc1cccc(-n2c(SCC(=O)N3CCc4ccccc43)nnc2-c2c[nH]c3ccccc23)c1	–	–	0.58 µM [rising, partial curve, poor fit]
COc1ccccc1CNC(=O)CN1CCN(c2ccc(C(C)=O)cc2)CC1	27.8	–	–
Cc1ccccc1-c1nc(S(=O)(=O)c2ccc(Br)cc2)c(NCc2cccnc2)o1	9	–	2.91 µM [rising, partial curve]
O=C(CN1CCN(S(=O)(=O)c2ccc(Br)cc2)CC1)Nc1ccc(F)cc1F	–	–	0.58 µM [falling, single point]
CCCOc1ccc(/C=C/C(=O)OCC(=O)N(C)c2c(N)n(Cc3ccccc3)c(=O)[nH]c2=O)cc1OCC	-46.2	18.4 µM [falling, partial curve, poor fit]	0.116 µM [rising, full curve, poor fit]
CCCOc1ncnc2c1sc1nc3c(cc12)COC(C)(C)C3	20	–	16.4 µM [rising, partial curve, poor fit]

Compound	cell number change [%]	AC50 [1]	AC50 [2]
CC(C)(C)c1ccc(OCC(O)CSc2ncn[nH]2)cc1 (centres undefined)	105	–	2.31 µM [falling, partial curve]
O=C(NC1CCCCC1)N1CCCC(c2nc(-c3ccc(S(=O)(=O)N4CCCC4)cc3)no2)C1 (centres undefined)	3.45	0.82 µM [rising, single point]	20.6 µM [falling, single point]
CC(=O)c1cccc(NC(=O)c2ccc(C)c(S(=O)(=O)N3CCOCC3)c2)c1	-6.67	–	6.51 µM [rising, single point]
O=C(Nc1ccccc1)C12CC3CC(C1)CC(n1cnc([N+](=O)[O-])n1)(C3)C2	-9.21	–	–
O=C(Nc1ccc(Cl)c(S(=O)(=O)N2CCOCC2)c1)c1ccc(OCC2CCCO2)cc1 (centres undefined)	13	–	0.00461 µM [rising, full curve, poor fit]
CCOC(=O)C1=C(O)/C(=C/c2ccc(OCC(=O)O)c(OC)c2)SC1=Nc1ccc(OC)cc1	5.23	–	–
CCOC(=O)C1CCN(CCC(=O)Nc2ccccc2Cl)CC1	24.1	–	16.4 µM [rising, single point]
COc1cccc(CNC(=O)C2CCCN(S(=O)(=O)N3CC(C)CC(C)C3)C2)c1 (centres undefined)	17.7	–	0.651 µM [rising, single point]
COc1ccc(OC)c(CN2CCC(N3CCC(C(=O)NC4CC4)CC3)CC2)c1	-18.1	–	–
Nc1nnc(Cc2ccc(Cl)cc2Cl)s1	4.92	–	0.731 µM [falling, single point]
COc1ccc(NS(=O)(=O)c2ccc(C)c(NC(=O)C3CCCO3)c2)cc1 (centres undefined)	19.3	–	6.51 µM [falling, single point]
COc1ccc(/C=N/NC(=O)C2C(=O)NCC2c2ccccc2)c(OC)c1 (centres undefined)	1.38	–	6.51 µM [rising, partial curve]
COc1ccc(-n2nnnc2CNC(=O)c2ccc(S(=O)(=O)N3CCOCC3)cc2)cc1	-26.3	–	23.1 µM [falling, single point]
CCCCCCn1nc(C(=O)OCC(=O)NC2CCS(=O)(=O)C2)c2ccccc2c1=O (centres undefined)	17.9	–	0.146 µM [rising, full curve, poor fit]
C=CCN1C(=O)C(Cc2ccc(OC)cc2)SC1=Nc1ccc(C(=O)O)cc1 (centres undefined)	-11	–	–
Cc1ccc(N=Cc2c(O)n(-c3cc(Cl)ccc3N3CCOCC3)c(=O)c3ccccc23)cc1C	44.6	14.6 µM [rising, partial curve, poor fit]	–
CC(C)c1ccc(C2(C)NC(=O)N(CC(=O)NCC3COc4ccccc4O3)C2=O)cc1 (centres undefined)	6.53	–	0.291 µM [rising, full curve, poor fit]
O=C(Cn1nnc(-c2ccccc2)n1)NCc1ccccc1	-1.56	–	–
Cn1nccc1NC(=O)NC(=O)c1c(Cl)cccc1Cl	-0.679	–	–
Cc1ccc(C)c(N2CCN(C(=O)c3ccc4c(c3)c(C)c(C)n4C)CC2)c1	13.1	–	29.1 µM [rising, single point]
